Results on one molecule are retold here after patent publication US11872200B2, “GABA agonists in the treatment of disorders associated with metabolic syndrome and GABA combinations in treatment or prophylaxis of type I diabetes” (The Regents of the University of California, priority 2010, dated 2024).

In this series the test system is HFD-fed mice. In words: GABA in drinking water of high fat diet (HFD) fed mice. The series is classed as in vivo. The settings on record: GABA 6 mg/ml in water vs normal water. The procedure:
Mice were fed high fat diet (HFD) or “western diet” causing them to gain weight, become obese, and develop glucose intolerance, insulin resistance, and metabolic syndrome. The mice were provided either normal water, or water that contained GABA (6 mg/ml). The weight, food intake, water intake, glucose tolerance, insulin sensitivity and blood glucose levels of the mice was monitored over 5 months.

In the case of `NCCCC(=O)O` [GABA, 4-aminobutanoic acid], where the note is “over 5 months (FIG. 1)”, the “amount of food consumed” value is listed as “no differences”. Besides, the “amount of water consumed” value (over 5 months (FIG. 2)) is listed as “no differences”.
